Five molecules from PMC10617773 can be followed below.

Chains of the proteins cited; added tags and fusions are not shown.
UniProt P35991: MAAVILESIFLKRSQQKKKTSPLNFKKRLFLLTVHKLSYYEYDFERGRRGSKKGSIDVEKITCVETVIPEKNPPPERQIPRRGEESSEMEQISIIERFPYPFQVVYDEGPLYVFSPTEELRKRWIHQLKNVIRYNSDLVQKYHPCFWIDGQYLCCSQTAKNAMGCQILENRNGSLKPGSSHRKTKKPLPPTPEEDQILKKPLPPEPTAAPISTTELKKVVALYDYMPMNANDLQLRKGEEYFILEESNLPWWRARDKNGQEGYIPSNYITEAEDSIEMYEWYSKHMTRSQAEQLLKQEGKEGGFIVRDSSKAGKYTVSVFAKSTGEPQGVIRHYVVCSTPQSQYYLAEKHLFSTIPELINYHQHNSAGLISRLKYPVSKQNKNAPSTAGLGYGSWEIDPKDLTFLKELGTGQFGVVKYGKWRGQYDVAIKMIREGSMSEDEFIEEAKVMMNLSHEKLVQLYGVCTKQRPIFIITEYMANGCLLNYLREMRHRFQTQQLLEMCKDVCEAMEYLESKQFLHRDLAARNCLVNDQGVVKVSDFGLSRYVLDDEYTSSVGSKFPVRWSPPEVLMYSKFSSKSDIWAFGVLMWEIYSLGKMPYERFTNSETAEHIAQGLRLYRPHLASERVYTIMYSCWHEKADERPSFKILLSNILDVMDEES
UniProt Q62167: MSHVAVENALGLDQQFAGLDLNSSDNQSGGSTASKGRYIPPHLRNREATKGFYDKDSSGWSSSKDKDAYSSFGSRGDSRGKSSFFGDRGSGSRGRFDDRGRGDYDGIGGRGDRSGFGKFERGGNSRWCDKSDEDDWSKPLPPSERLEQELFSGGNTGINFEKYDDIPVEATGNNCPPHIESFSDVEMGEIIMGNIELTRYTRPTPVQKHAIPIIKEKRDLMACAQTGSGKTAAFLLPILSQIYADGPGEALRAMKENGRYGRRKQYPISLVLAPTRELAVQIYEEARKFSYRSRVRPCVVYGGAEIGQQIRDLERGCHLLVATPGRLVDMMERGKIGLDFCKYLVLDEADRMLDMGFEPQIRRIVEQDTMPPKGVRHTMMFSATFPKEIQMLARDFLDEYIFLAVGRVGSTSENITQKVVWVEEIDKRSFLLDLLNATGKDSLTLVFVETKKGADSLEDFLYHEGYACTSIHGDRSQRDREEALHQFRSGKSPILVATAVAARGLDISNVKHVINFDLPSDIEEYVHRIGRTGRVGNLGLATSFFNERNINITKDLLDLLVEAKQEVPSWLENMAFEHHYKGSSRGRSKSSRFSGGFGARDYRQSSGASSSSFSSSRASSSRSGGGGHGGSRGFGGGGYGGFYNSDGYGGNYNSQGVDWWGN

Test [1] deals with BASU-tagged PLK1 (biotin ligase BASU connected to murine PLK1 with a (GGGS)3 linker) (mouse) (UniProt Q07832). Nature of the test: proximity labelling; Bio-ID: iBMDMs stably expressing BASU-PLK1, primed (100 ng/mL LPS) and activated (10 μM nigericin, 2 hours) with 50 μM biotin, Ac-YVAD-cmk and glycine; biotinylated proteins purified on streptavidin magnetic beads, TMT labeling and LC-MS/MS; activated against primed; candidates that responded to BASU alone removed.

In test [2] the target is T1, BASU-tagged PLK1 (biotin ligase BASU connected to murine PLK1 with a (GGGS)3 linker) (mouse), Q07832.
T1 chain: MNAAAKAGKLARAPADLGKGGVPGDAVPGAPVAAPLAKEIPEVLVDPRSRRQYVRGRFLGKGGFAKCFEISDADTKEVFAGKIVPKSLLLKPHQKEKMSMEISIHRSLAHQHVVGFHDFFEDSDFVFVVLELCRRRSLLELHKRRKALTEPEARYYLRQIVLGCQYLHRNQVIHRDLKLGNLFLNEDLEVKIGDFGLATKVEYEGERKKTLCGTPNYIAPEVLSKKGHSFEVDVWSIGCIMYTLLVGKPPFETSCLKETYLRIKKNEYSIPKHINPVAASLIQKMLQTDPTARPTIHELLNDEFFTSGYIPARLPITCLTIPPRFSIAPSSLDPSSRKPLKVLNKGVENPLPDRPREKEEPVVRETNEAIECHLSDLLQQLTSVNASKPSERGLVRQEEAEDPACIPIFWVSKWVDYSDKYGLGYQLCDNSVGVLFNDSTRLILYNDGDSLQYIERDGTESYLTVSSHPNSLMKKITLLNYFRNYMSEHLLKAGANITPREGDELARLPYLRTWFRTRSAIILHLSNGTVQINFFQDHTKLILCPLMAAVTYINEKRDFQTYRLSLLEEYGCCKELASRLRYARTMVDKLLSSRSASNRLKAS
The description is as above. The settings on record: remark: other sources report otherwise.

No constants are given. Whether binding was seen depends on the method and setting. In cells and extracts the contact can be indirect. A yes stands for co-enrichment or nearness to the bait. Other partners may have been found. For some assays here: Where a sequence is shown, tags or fusion partners need not be part of it.

BTK (from UniProt P35991 1-659): in test [1], the binding result is reported as “binds”. The same measure, in the same setting: for DDX3X (from UniProt Q62167 1-662) the value was “binds”.

B1: PKR (protein, UniProt Q03963 1-515)
chain: MASDTPGFYMDKLNKYRQMHGVAITYKELSTSGPPHDRRFTFQVLIDEKEFPEAKGRSKQEARNAAAKLAVDILDNENKVDCHTSASEQGLFVGNYIGLVNSFAQKKKLSVNYEQCEPNSELPQRFICKCKIGQTMYGTGSGVTKQEAKQLAAKEAYQKLLKSPPKTAGTSSSVVTSTFSGFSSSSSMTSNGVSQSAPGSFSSENVFTNGLGENKRKSGVKVSPDDVQRNKYTLDARFNSDFEDIEEIGLGGFGQVFKAKHRIDGKRYAIKRVKYNTEKAEHEVQALAELNHVNIVQYHSCWEGVDYDPEHSMSDTSRYKTRCLFIQMEFCDKGTLEQWMRNRNQSKVDKALILDLYEQIVTGVEYIHSKGLIHRDLKPGNIFLVDERHIKIGDFGLATALENDGKSRTRRTGTLQYMSPEQLFLKHYGKEVDIFALGLILAELLHTCFTESEKIKFFESLRKGDFSNDIFDNKEKSLLKKLLSEKPKDRPETSEILKTLAEWRNISEKKKRNTC
As to B1, the binding result in test [1] was “binds”.

B2: GBP5 (protein, UniProt Q8CFB4 1-590)
chain: MAPEIHMPEPLCLIGSTEGHLVTNQEALKILSAITQPVVVVAIVGLYRTGKSYLMNKLAGKEKGFSVGSTVQSHTKGIWMWCVPHPQKPDHTLVLLDTEGLGDVEKDDKKNDTQIFALAILLSSTFVYNTMNKIDQGAIDLLHNVTELTDLLRTRNSSDSNQTEGEGPADMSFFPDLVWTLRDFFLDLQANGHAITSDEYLENSLKLKQGSDERTQTFNLPRLCIQKFFPVKKCFVFDAPALGSKLSQLPTLSNEELNSDFVQDLSEFCSHIFTQSKTKTLPGGIQVNGPRLESLVLTYVDAINSGALPSIENTVVTLARRENSAAVQKAIGHYDQLMSEKVQLPTETLQELLDLHRTCEREAIEIFRKHSFKDEGEFFQKELESLLSAKQDEICKKNADASAALCSTLLGSIFKPLEQEVAQEFYHKPGGHKLFLQRMEQLKANYRQQPGKGTQAEEVLQTYLNAKETVSRTILQTDQVLTDKEIQSKAEQERAEAARLEAQRLEAIRIQEEQRKAEMERQHQEQLRQIALEKARVAQEQQWILKQRAQEEADRIKAEQEAQLRALQQQLQHMREMNHHRRHHHDCVIS
On to B2, for which the binding entry in test [1] is on record as “binds”.

B3: NLR family pyrin domain-containing 3 (NLRP3), endogenous murine, Q8R4B8 1-1033 (protein)
chain: MTSVRCKLAQYLEDLEDVDLKKFKMHLEDYPPEKGCIPVPRGQMEKADHLDLATLMIDFNGEEKAWAMAVWIFAAINRRDLWEKAKKDQPEWNDTCTSHSSMVCQEDSLEEEWMGLLGYLSRISICKKKKDYCKMYRRHVRSRFYSIKDRNARLGESVDLNSRYTQLQLVKEHPSKQEREHELLTIGRTKMRDSPMSSLKLELLFEPEDGHSEPVHTVVFQGAAGIGKTILARKIMLDWALGKLFKDKFDYLFFIHCREVSLRTPRSLADLIVSCWPDPNPPVCKILRKPSRILFLMDGFDELQGAFDEHIGEVCTDWQKAVRGDILLSSLIRKKLLPKASLLITTRPVALEKLQHLLDHPRHVEILGFSEAKRKEYFFKYFSNELQAREAFRLIQENEVLFTMCFIPLVCWIVCTGLKQQMETGKSLAQTSKTTTAVYVFFLSSLLQSRGGIEEHLFSDYLQGLCSLAADGIWNQKILFEECDLRKHGLQKTDVSAFLRMNVFQKEVDCERFYSFSHMTFQEFFAAMYYLLEEEAEGETVRKGPGGCSDLLNRDVKVLLENYGKFEKGYLIFVVRFLFGLVNQERTSYLEKKLSCKISQQVRLELLKWIEVKAKAKKLQWQPSQLELFYCLYEMQEEDFVQSAMDHFPKIEINLSTRMDHVVSSFCIKNCHRVKTLSLGFFHNSPKEEEEERRGGRPLDQVQCVFPDTHVACSSRLVNCCLTSSFCRGLFSSLSTNRSLTELDLSDNTLGDPGMRVLCEALQHPGCNIQRLWLGRCGLSHQCCFDISSVLSSSQKLVELDLSDNALGDFGIRLLCVGLKHLLCNLQKLWLVSCCLTSACCQDLALVLSSNHSLTRLYIGENALGDSGVQVLCEKMKDPQCNLQKLGLVNSGLTSICCSALTSVLKTNQNFTHLYLRSNALGDTGLRLLCEGLLHPDCKLQMLELDNCSLTSHSCWNLSTILTHNHSLRKLNLGNNDLGDLCVVTLCEVLKQQGCLLQSLQLGEMYLNRETKRALEALQEEKPELTIVFEISW
Consider B3, for which the binding entry in test [2] is “binds”.
